# Test results from US6946253B2, “Herpes zinc finger motifs” (University Court of the University of Glasgow, priority 2000, dated 2005).
# Some entries share one result that the patent states for a list of compounds.
# Assays:
# [1] = system: HSV-1; experiment: Plaque reduction assay in BHK21/C13 cells; assay type: cell-based, herpes simplex virus type 1; details: HSV-1, highest drug concentrations, 400 pfu/plate, 48 h
# Method: (§1) Plaque reduction assay. Confluent monolayers (4×10^6 cells) of BHK21/C13 cells were preincubated with the appropriate drug concentration, 0.1% DMSO(v/v) or mock treated as a control for 24 h and subsequently infected at a moi of 400 pfu/plate with either HSV-1 or HSV-2 and incubated for 48 h at 37° C. […] Tests of each drug concentration were performed in triplicate and the average of the 3 plates calculated. Results were expressed as pfu/plate and % of the number of plaques on the untreated control plates (23).
# (§2) Plaquing Efficiency in the Presence of ADA and DIBA. To determine if the reduction in virus yield seen in the previous experiment was due to a virucidal effect, inhibition of virus entry (adsorption penetration) or intracellular replication, a plaque reduction assay was carried out. Here, the ability of the virus to plaque was measured. An effect on the stability of the virus particle or virus entry would lead to a reduction in the number of plaques compared to the control untreated plates for a given amount of virus. In contrast, an effect on intracellular virus replication would not lead to a significant reduction in plaques.
# [2] = system: HSV-2; experiment: Plaque reduction assay in BHK21/C13 cells; assay type: cell-based, herpes simplex virus type 2; details: HSV-2, highest drug concentrations, 400 pfu/plate, 48 h
# Method: as §1, with “Results were expressed as pfu/plate and % of the number of plaques on the untreated control plates (23).” left out
# as §2
structure (smiles),measurement,setting,value
"NC(=O)c1ccccc1SSc1ccccc1C(N)=O [DIBA, 2,2′-dithiobisbenzamide]",reduction in number of plaques compared to untreated plates,[1],≤ 10%
same,reduction in number of plaques compared to untreated plates,[2],≤ 10%
